The source of these data is PubChem BioAssay AID1487 (National Center for Advancing Translational Sciences (NCATS), 2009).

Some of the results follow. The main result of the screen is listed elsewhere. These columns were measured beside it and carry no call. Most of these compounds were active or inconclusive in the main read-out, so they are no random draw. Words in brackets tell the shape of the fitted curve; partial curves, single points and poor fits give uncertain potencies.

One may read the AC50 as the concentration giving half of the maximal activity seen.

A short description of this experiment: qHTS Assay for Modulators of Lamin A Splicing. The following applies: HeLa LMNA splicing GFP/RFP minigene ratio, 48 h. In short, it runs like this: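 Read-out is the ratio of GFP to DsRed2 object intensity, acquired by 488 nm laser-scanning cytometry on HeLa lamin A-EGFP minigene reporter cells. Compound incubation 48 hrs at 37 °C in Opti-MEM with 2% FBS; DMSO 0.5% final.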
On the technique in general: qHTS replaces the single test concentration by a dilution series.

Setting [1] is: measured here: RFP viability control channel.
[2] abbreviates: measured here: GFP splicing reporter channel.

Turning to `COc1ccc(NC(=O)c2ccc([N+](=O)[O-])s2)c([N+](=O)[O-])c1`, under setting [1], the AC50 is 8.91 µM [rising, partial curve].
Still for that read-out and setting: then `Cc1ccc(S(=O)(=O)Nc2ccc3oc(=O)sc3c2)c(C)c1`, with 10 µM [rising, partial curve, poor fit].
`CNC(=O)c1ccsc1NC(=O)c1ccc(S(=O)(=O)N2CCCc3ccccc32)cc1`: the AC50 under setting [2] was 11.2 µM [rising, single point] and the AC50 under setting [1] is 12.6 µM [rising, partial curve].
As for `Cc1nonc1OCCn1c([N+](=O)[O-])cnc1C`, under setting [1], the concentration at half-maximal activity (AC50) is 0.447 µM [rising, full curve, poor fit].
Still for that read-out and setting: as for `COc1cccc(-c2nc(CS(=O)(=O)CC(=O)N3CCN(c4ccccn4)CC3)c(C)o2)c1`, the figure is 12.6 µM [rising, partial curve].
Regarding `CCc1ccc(C(=O)CN2CCSC2=N)cc1`, the AC50 under setting [2] is 12.6 µM [rising, partial curve] and the half-maximal activity concentration (AC50) under setting [1] is 14.1 µM [rising, single point].
As for `Cn1c(=O)n(C)c2cc(S(=O)(=O)NCCc3ccccc3)ccc21`, the AC50 was 12.6 µM [rising, single point] under setting [2] and 14.1 µM [rising, partial curve] under setting [1].
Take `Cc1cc2nc(SC(C)C(=O)O)[nH]c2cc1C` (stereo unspecified): the AC50 under setting [2] was 12.6 µM [rising, partial curve, poor fit].
The same measure, in the same setting: as for `CCN(CC)CCNC(=O)C(=O)Nc1c2c(nn1-c1ccc(F)cc1)CSC2`, the figure is 2.51 µM [falling, full curve, poor fit].
`Cc1ccn2c(NC3CCCCC3)c(C)nc2c1`: the half-maximal activity concentration (AC50) was 20 µM [rising, single point] under setting [2] and 14.1 µM [rising, single point] under setting [1].
For the compound `COc1ccc(-n2c(C)nc3sc4c(c3c2=O)CCCC4)cc1`, the concentration at half-maximal activity (AC50) under setting [1] was 2.24 µM [rising, partial curve, poor fit].
Same read-out and setting: then `O=C(Nc1nncs1)c1ccc(N2C(=O)C3C4C=CC(C4)C3C2=O)cc1` (stereo unspecified), with 20 µM [rising, partial curve, poor fit].
As for `c1coc(-c2nc(-c3ccco3)c(-c3ccco3)nc2-c2ccco2)c1`, the concentration at half-maximal activity (AC50) under setting [2] is 2.82 µM [rising, full curve, poor fit] and the AC50 under setting [1] is 7.08 µM [rising, single point].
Consider `O=C(CSCc1c(Cl)cccc1Cl)NN=C1CCCC1`, for which the AC50 under setting [1] is 15.8 µM [rising, partial curve, poor fit].
Regarding `CCc1ccc(NC(=O)CSc2nnc3[nH]c(=O)cc(-c4ccccc4)n23)cc1`, the half-maximal activity concentration (AC50) is, setting by setting: under setting [2], 17.8 µM [rising, partial curve, poor fit]; under setting [1], 7.08 µM [rising, partial curve].
As for `CC(=O)c1cccc(NC(=S)NCCCCc2ccccc2)c1`, the AC50 under setting [1] was 0.224 µM [rising, partial curve, poor fit].
Same read-out and setting: then `N#Cc1c(NC(=O)c2cc(-n3cnnc3)ccc2Cl)sc2c1CCCC2`, with 14.1 µM [rising, single point]; and `COc1ccc(OC)c(S(=O)(=O)N2CCCCC2C(=O)N2CCN(c3ccccn3)CC2)c1` (stereo unspecified), with 3.16 µM [falling, partial curve, poor fit].
On to `CCOC(=O)c1cnc(-c2ccccc2)nc1C(F)(F)F`, for which the AC50 under setting [2] is 0.00501 µM [rising, full curve, poor fit].
In the case of `COc1cc(CNc2ccc3[nH]c(=O)[nH]c3c2)ccc1OCc1ccc(F)cc1Cl`, the concentration at half-maximal activity (AC50) under setting [2] is 8.91 µM [falling, partial curve, poor fit] and the half-maximal activity concentration (AC50) under setting [1] is 20 µM [falling, partial curve, poor fit].
Regarding `Cc1ccc([N+](=O)[O-])cc1NC1OC(CO)C(O)C1O` (stereo unspecified), under setting [2], the AC50 was 1.41 µM [rising, partial curve, poor fit].
As to `Cc1ccc(C)c(N2CCN(C(=O)c3cc(S(=O)(=O)N4CCOCC4)ccc3F)CC2)c1`, the AC50 under setting [2] is 14.1 µM [rising, single point] and the AC50 under setting [1] was 25.1 µM [rising, partial curve].
As for `CC(C)Oc1cccc(C(=O)C2CCCN(Cc3cnc(N4CCOCC4)s3)C2)c1` (stereo unspecified), under setting [1], the half-maximal activity concentration (AC50) was 0.00355 µM [falling, full curve, poor fit].
For `O=C(N/N=C/c1ccccn1)C12CC3CC(CC(C3)C1)C2`, the half-maximal activity concentration (AC50) is 31.6 µM [rising, single point] under setting [2] and 25.1 µM [rising, single point] under setting [1].
With `COc1ccc(N2CCN(C(=O)CNC(=O)c3ccc(C(C)(C)C)cc3)CC2)cc1`, the half-maximal activity concentration (AC50) reads like this: under setting [2], 11.2 µM [rising, partial curve, poor fit]; under setting [1], 15.8 µM [rising, single point].
Take `O=C1NC2(CCCc3ccccc32)C(=O)N1Cc1nnc(-c2ccccc2Br)o1` (stereo unspecified): the concentration at half-maximal activity (AC50) by setting is: under setting [2], 11.2 µM [rising, partial curve]; under setting [1], 14.1 µM [rising, single point].
On to `CC(=O)N(CC(O)CN(C(C)=O)c1c(I)c(C(=O)NC[C@@H](O)CO)c(I)c(C(=O)NC[C@@H](O)CO)c1I)c1c(I)c(C(=O)NC[C@@H](O)CO)c(I)c(C(=O)NC[C@@H](O)CO)c1I`, for which the AC50 was 0.891 µM [rising, full curve, poor fit] under setting [2] and 0.0562 µM [rising, full curve, poor fit] under setting [1].
With `Cc1ccc2c(Cn3cc(C(F)(F)F)cc(Cl)c3=O)cc(=O)oc2c1`, the AC50 under setting [1] was 2.51 µM [rising, single point].
As for `O=c1c2ccccc2nnn1CSc1nc2ccccc2c(=O)n1Cc1ccco1`, the half-maximal activity concentration (AC50) under setting [1] is 11.2 µM [rising, partial curve, poor fit].
As for `O=C(CCC1N=C2c3ccccc3N=C(SCc3ccccc3Cl)N2C1=O)NCc1ccco1` (stereo unspecified), the AC50 under setting [2] was 22.4 µM [rising, single point].
As for `CC(C)(C)c1ccc(NC(=O)NC2CCCc3ccccc32)cc1` (stereo unspecified), under setting [1], the AC50 is 11.2 µM [falling, partial curve].
Still for that read-out and setting: then `Cc1ccc(Nc2nnc(SCC(=O)Nc3cccc(S(=O)(=O)N4CCCCC4)c3)s2)cc1`, with 35.5 µM [rising, single point].
For `CCCc1cnc2c(c1SCc1cccc(F)c1)c(=O)n(C)c(=O)n2C`, the AC50 is 11.2 µM [rising, partial curve] under setting [2] and 12.6 µM [rising, partial curve] under setting [1].
Take `O=C(CCl)N(c1ccccc1)C1CCS(=O)(=O)C1` (stereo unspecified): the AC50 is, setting by setting: under setting [2], 35.5 µM [falling, single point]; under setting [1], 2.82 µM [falling, partial curve].
For the compound `O=S(=O)(Nc1cccc(-c2cn3ccsc3n2)c1)c1ccc(F)cc1`, the AC50 under setting [1] is 17.8 µM [rising, single point].
Regarding `Cc1noc(C)c1-c1nccc(NCc2ccccc2)n1`, the concentration at half-maximal activity (AC50) under setting [2] is 12.6 µM [falling, partial curve].
On to `COc1ccc(-c2cc(-c3ccccc3O)[nH]n2)cc1`, for which the concentration at half-maximal activity (AC50) under setting [1] was 14.1 µM [rising, single point].
Regarding `CC(OC(=O)CN1C(=O)C2CCCCC2C1=O)C(=O)Nc1ncc(Cl)cc1Cl` (stereo unspecified), the concentration at half-maximal activity (AC50) by setting is: under setting [2], 0.631 µM [falling, full curve]; under setting [1], 0.891 µM [falling, full curve].
Consider `O=C(CSc1ncnc2ccccc12)NCC(=O)c1ccccc1`, for which, under setting [2], the AC50 was 10 µM [falling, partial curve, poor fit].
Regarding `COc1cccc(/C=N/Nc2ncnc3scc(-c4ccccc4)c23)c1O`, the half-maximal activity concentration (AC50) was 14.1 µM [rising, partial curve] under setting [2] and 25.1 µM [rising, partial curve] under setting [1].
As for `Cc1ccc(CSc2nc3c(cc2C#N)CCC3)cc1`, the AC50 under setting [2] was 6.31 µM [falling, single point].
`CC(C)CC(=O)NC(=S)NNC(=O)c1cccc([N+](=O)[O-])c1`: under setting [1], the AC50 was 35.5 µM [rising, single point].
Take `Cc1ccc(S(=O)(=O)c2nc(S(C)(=O)=O)sc2NCc2ccc3c(c2)OCO3)cc1`: under setting [1], the AC50 was 25.1 µM [rising, single point].
With `CCn1c(=N)n(CC(O)COc2ccccc2)c2ccccc21` (stereo unspecified), under setting [2], the AC50 is 0.158 µM [rising, full curve, poor fit].
As to `CCOC(=O)C1=C(C)N(C)C(=S)NC1c1ccc(Cl)cc1Cl` (stereo unspecified), the AC50 reads like this: under setting [2], 12.6 µM [rising, partial curve, poor fit]; under setting [1], 35.5 µM [rising, single point].
As to `COc1ccccc1NC(=O)Cn1c(=O)n(-c2cccc(C)c2)c(=O)c2c1c1cc(C)ccc1n2C`, under setting [1], the AC50 is 0.0158 µM [falling, full curve, poor fit].
`Cn1ccnc1C(O)c1cc(C(C)(C)C)c(O)c(C(C)(C)C)c1` (stereo unspecified): the AC50 by setting is: under setting [2], 2.82 µM [falling, single point]; under setting [1], 2.51 µM [falling, single point].
`CC12CC(NC(=O)N1CCc1ccccc1)c1cc(Cl)ccc1O2` (stereo unspecified): the half-maximal activity concentration (AC50) under setting [2] is 12.6 µM [rising, single point] and the AC50 under setting [1] was 11.2 µM [rising, partial curve].
As for `Cc1ccc(CN2CC(C(=O)Nc3cc(S(C)(=O)=O)ccc3Cl)CC2=O)cc1` (stereo unspecified), the AC50 was 35.5 µM [rising, single point] under setting [2] and 35.5 µM [rising, single point] under setting [1].
`COc1ccc(Nc2sc(C(=O)Nc3cccc(Cl)c3)c(N)c2C(=O)Nc2ccccc2OC)cc1`: the concentration at half-maximal activity (AC50) under setting [1] is 15.8 µM [rising, single point].
Regarding `COc1ccc(NC(=O)CN2CCCC(C)C2)c([N+](=O)[O-])c1` (stereo unspecified), the AC50 was 20 µM [rising, single point] under setting [2] and 35.5 µM [rising, single point] under setting [1].
Take `Clc1ccc(/C=N/N2CCN(Cc3ccccc3Cl)CC2)cc1`: under setting [1], the AC50 is 31.6 µM [rising, single point].
As to `COc1ccc(N(C(=O)c2ccc(C)cc2)S(=O)(=O)c2cccs2)cc1`, under setting [1], the half-maximal activity concentration (AC50) was 35.5 µM [rising, single point].
In the case of `CCOc1ccc(Br)cc1/C(C)=N\NC1=NCCN1`, the AC50 by setting is: under setting [2], 10 µM [rising, single point]; under setting [1], 11.2 µM [rising, partial curve].
